PMC8436130
Results are given in words; binding and its absence hold for the method and conditions named. In cells and extracts the contact can be indirect. These calls come from enrichment with a bait or labelling near it, and not all partners need be listed. For part of these data: A no says only that the protein was not detected with the bait. One block for each binder: values may come before it.

The chains behind the UniProt entries cited, without tags or fusion partners.
UniProt Q86WV6: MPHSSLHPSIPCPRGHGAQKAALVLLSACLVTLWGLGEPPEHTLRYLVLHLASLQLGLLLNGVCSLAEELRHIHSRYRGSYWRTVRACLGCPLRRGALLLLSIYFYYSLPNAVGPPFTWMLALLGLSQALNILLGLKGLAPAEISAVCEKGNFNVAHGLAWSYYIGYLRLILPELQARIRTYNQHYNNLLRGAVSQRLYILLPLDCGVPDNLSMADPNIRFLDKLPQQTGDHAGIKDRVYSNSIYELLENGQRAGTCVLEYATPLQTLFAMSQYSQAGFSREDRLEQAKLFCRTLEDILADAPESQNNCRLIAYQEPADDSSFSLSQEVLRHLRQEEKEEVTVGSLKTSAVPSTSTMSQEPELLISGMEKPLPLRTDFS

Key:
[1] = biological target: STimulator of INterferon Genes (STING) fused to GFP (UniProt Q86WV6); assay: affinity purification with mass spectrometry; nuclear envelopes isolated from HEK293T cells expressing STING-GFP, reversibly cross-linked with ortho-phenanthroline copper, resuspended in RIPA and sonicated, immunoprecipitated with GFP antibodies on Protein A-sepharose, released with 50 mM DTT, tandem mass spectrometry; mock-transfected cells as control
[2] = biological target: STimulator of INterferon Genes (STING) fused to GFP, Q86WV6; assay: as above; details: remark: other sources report otherwise

binding [1]: binds
B3: UHRF1 (protein, UniProt Q96T88 1-793)
chain: MWIQVRTMDGRQTHTVDSLSRLTKVEELRRKIQELFHVEPGLQRLFYRGKQMEDGHTLFDYEVRLNDTIQLLVRQSLVLPHSTKERDSELSDTDSGCCLGQSESDKSSTHGEAAAETDSRPADEDMWDETELGLYKVNEYVDARDTNMGAWFEAQVVRVTRKAPSRDEPCSSTSRPALEEDVIYHVKYDDYPENGVVQMNSRDVRARARTIIKWQDLEVGQVVMLNYNPDNPKERGFWYDAEISRKRETRTARELYANVVLGDDSLNDCRIIFVDEVFKIERPGEGSPMVDNPMRRKSGPSCKHCKDDVNRLCRVCACHLCGGRQDPDKQLMCDECDMAFHIYCLDPPLSSVPSEDEWYCPECRNDASEVVLAGERLRESKKKAKMASATSSSQRDWGKGMACVGRTKECTIVPSNHYGPIPGIPVGTMWRFRVQVSESGVHRPHVAGIHGRSNDGAYSLVLAGGYEDDVDHGNFFTYTGSGGRDLSGNKRTAEQSCDQKLTNTNRALALNCFAPINDQEGAEAKDWRSGKPVRVVRNVKGGKNSKYAPAEGNRYDGIYKVVKYWPEKGKSGFLVWRYLLRRDDDEPGPWTKEGKDRIKKLGLTMQYPEGYLEALANREREKENSKREEEEQQEGGFASPRTGKGKWKRKSAGGGPSRAGSPRRTSKKTKVEPYSLTAQQSSLIREDKSNAKLWNEVLASLKDRPASGSPFQLFLSKVEETFQCICCQELVFRPITTVCQHNVCKDCLDRSFRAQVFSCPACRYDLGRSYAMQVNQPLQTVLNQLFPGYGNGR

binding [1]: binds
B4: AATF (protein, UniProt Q9NY61 1-560)
chain: MAGPQPLALQLEQLLNPRPSEADPEADPEEATAARVIDRFDEGEDGEGDFLVVGSIRKLASASLLDTDKRYCGKTTSRKAWNEDHWEQTLPGSSDEEISDEEGSGDEDSEGLGLEEYDEDDLGAAEEQECGDHRESKKSRSHSAKTPGFSVQSISDFEKFTKGMDDLGSSEEEEDEESGMEEGDDAEDSQGESEEDRAGDRNSEDDGVVMTFSSVKVSEEVEKGRAVKNQIALWDQLLEGRIKLQKALLTTNQLPQPDVFPLFKDKGGPEFSSALKNSHKALKALLRSLVGLQEELLFQYPDTRYLVDGTKPNAGSEEISSEDDELVEEKKQQRRRVPAKRKLEMEDYPSFMAKRFADFTVYRNRTLQKWHDKTKLASGKLGKGFGAFERSILTQIDHILMDKERLLRRTQTKRSVYRVLGKPEPAAQPVPESLPGEPEILPQAPANAHLKDLDEEIFDDDDFYHQLLRELIERKTSSLDPNDQVAMGRQWLAIQKLRSKIHKKVDRKASKGRKLRFHVLSKLLSFMAPIDHTTMNDDARTELYRSLFGQLHPPDEGHGD

binding [1]: binds
B5: NOP58 (protein, UniProt Q9Y2X3 1-529)
chain: MLVLFETSVGYAIFKVLNEKKLQEVDSLWKEFETPEKANKIVKLKHFEKFQDTAEALAAFTALMEGKINKQLKKVLKKIVKEAHEPLAVADAKLGGVIKEKLNLSCIHSPVVNELMRGIRSQMDGLIPGVEPREMAAMCLGLAHSLSRYRLKFSADKVDTMIVQAISLLDDLDKELNNYIMRCREWYGWHFPELGKIISDNLTYCKCLQKVGDRKNYASAKLSELLPEEVEAEVKAAAEISMGTEVSEEDICNILHLCTQVIEISEYRTQLYEYLQNRMMAIAPNVTVMVGELVGARLIAHAGSLLNLAKHAASTVQILGAEKALFRALKSRRDTPKYGLIYHASLVGQTSPKHKGKISRMLAAKTVLAIRYDAFGEDSSSAMGVENRAKLEARLRTLEDRGIRKISGTGKALAKTEKYEHKSEVKTYDPSGDSTLPTCSKKRKIEQVDKEDEITEKKAKKAKIKVKVEEEEEEKVAEEEETSVKKKKKRGKKKHIKEEPLSEEEPCTSTAIASPEKKKKKKKKRENED

Further lines, the binder ahead of its results:

B1: HELLS (protein, UniProt Q9NRZ9 1-838)
chain: MPAERPAGSGGSEAPAMVEQLDTAVITPAMLEEEEQLEAAGLERERKMLEKARMSWDRESTEIRYRRLQHLLEKSNIYSKFLLTKMEQQQLEEQKKKEKLERKKESLKVKKGKNSIDASEEKPVMRKKRGREDESYNISEVMSKEEILSVAKKNKKENEDENSSSTNLCVEDLQKNKDSNSIIKDRLSETVRQNTKFFFDPVRKCNGQPVPFQQPKHFTGGVMRWYQVEGMEWLRMLWENGINGILADEMGLGKTVQCIATIALMIQRGVPGPFLVCGPLSTLPNWMAEFKRFTPDIPTMLYHGTQEERQKLVRNIYKRKGTLQIHPVVITSFEIAMRDRNALQHCYWKYLIVDEGHRIKNMKCRLIRELKRFNADNKLLLTGTPLQNNLSELWSLLNFLLPDVFDDLKSFESWFDITSLSETAEDIIAKEREQNVLHMLHQILTPFLLRRLKSDVALEVPPKREVVVYAPLSKKQEIFYTAIVNRTIANMFGSSEKETIELSPTGRPKRRTRKSINYSKIDDFPNELEKLISQIQPEVDRERAVVEVNIPVESEVNLKLQNIMMLLRKCCNHPYLIEYPIDPVTQEFKIDEELVTNSGKFLILDRMLPELKKRGHKVLLFSQMTSMLDILMDYCHLRDFNFSRLDGSMSYSEREKNMHSFNTDPEVFIFLVSTRAGGLGINLTAADTVIIYDSDWNPQSDLQAQDRCHRIGQTKPVVVYRLVTANTIDQKIVERAAAKRKLEKLIIHKNHFKGGQSGLNLSKNFLDPKELMELLKSRDYEREIKGSREKVISDKDLELLLDRSDLIDQMNASGPIKEKMGIFKILENSEDSSPECLF
binding [1]: binds

B2: DDX23, Q9BUQ8 1-820 (protein)
chain: MAGELADKKDRDASPSKEERKRSRTPDRERDRDRDRKSSPSKDRKRHRSRDRRRGGSRSRSRSRSKSAERERRHKERERDKERDRNKKDRDRDKDGHRRDKDRKRSSLSPGRGKDFKSRKDRDSKKDEEDEHGDKKPKAQPLSLEELLAKKKAEEEAEAKPKFLSKAEREAEALKRRQQEVEERQRMLEEERKKRKQFQDLGRKMLEDPQERERRERRERMERETNGNEDEEGRQKIREEKDKSKELHAIKERYLGGIKKRRRTRHLNDRKFVFEWDASEDTSIDYNPLYKERHQVQLLGRGFIAGIDLKQQKREQSRFYGDLMEKRRTLEEKEQEEARLRKLRKKEAKQRWDDRHWSQKKLDEMTDRDWRIFREDYSITTKGGKIPNPIRSWKDSSLPPHILEVIDKCGYKEPTPIQRQAIPIGLQNRDIIGVAETGSGKTAAFLIPLLVWITTLPKIDRIEESDQGPYAIILAPTRELAQQIEEETIKFGKPLGIRTVAVIGGISREDQGFRLRMGCEIVIATPGRLIDVLENRYLVLSRCTYVVLDEADRMIDMGFEPDVQKILEHMPVSNQKPDTDEAEDPEKMLANFESGKHKYRQTVMFTATMPPAVERLARSYLRRPAVVYIGSAGKPHERVEQKVFLMSESEKRKKLLAILEQGFDPPIIIFVNQKKGCDVLAKSLEKMGYNACTLHGGKGQEQREFALSNLKAGAKDILVATDVAGRGIDIQDVSMVVNYDMAKNIEDYIHRIGRTGRAGKSGVAITFLTKEDSAVFYELKQAILESPVSSCPPELANHPDAQHKPGTILTKKRREETIFA
binding [2]: binds

B6: TANK-binding kinase 1 (TBK1), Q9UHD2 1-729 (protein)
chain: MQSTSNHLWLLSDILGQGATANVFRGRHKKTGDLFAIKVFNNISFLRPVDVQMREFEVLKKLNHKNIVKLFAIEEETTTRHKVLIMEFCPCGSLYTVLEEPSNAYGLPESEFLIVLRDVVGGMNHLRENGIVHRDIKPGNIMRVIGEDGQSVYKLTDFGAARELEDDEQFVSLYGTEEYLHPDMYERAVLRKDHQKKYGATVDLWSIGVTFYHAATGSLPFRPFEGPRRNKEVMYKIITGKPSGAISGVQKAENGPIDWSGDMPVSCSLSRGLQVLLTPVLANILEADQEKCWGFDQFFAETSDILHRMVIHVFSLQQMTAHKIYIHSYNTATIFHELVYKQTKIISSNQELIYEGRRLVLEPGRLAQHFPKTTEENPIFVVSREPLNTIGLIYEKISLPKVHPRYDLDGDASMAKAITGVVCYACRIASTLLLYQELMRKGIRWLIELIKDDYNETVHKKTEVVITLDFCIRNIEKTVKVYEKLMKINLEAAELGEISDIHTKLLRLSSSQGTIETSLQDIDSRLSPGGSLADAWAHQEGTHPKDRNVEKLQVLLNCMTEIYYQFKKDKAERRLAYNEEQIHKFDKQKLYYHATKAMTHFTDECVKKYEAFLNKSEEWIRKMLHLRKQLLSLTNQCFDIEEEVSKYQEYTNELQETLPQKMFTASSGIKHTMTPIYPSSNTLVEMTLGMKKLKEEMEGVVKELAENNHILERFGSLTMDGGLRNVDCL
binding [2]: no binding
